# Laboratory results reported in PMC10965980.
# Results are given in words; binding and its absence hold for the method and conditions named. In cells and extracts the contact can be indirect. Some results given as binding are weak or reduced against the parent protein; the word gives no strength.
# B1: mGluR1 expressed from lentivirus (LV-mGluR1), P97772 21-1199 (receptor)
# chain: RMPDRKVLLAGASSQRSVARMDGDVIIGALFSVHHQPPAEKVPERKCGEIREQYGIQRVEAMFHTLDKINADPVLLPNITLGSEIRDSCWHSSVALEQSIEFIRDSLISIRDEKDGLNRCLPDGQTLPPGRTKKPIAGVIGPGSSSVAIQVQNLLQLFDIPQIAYSATSIDLSDKTLYKYFLRVVPSDTLQARAMLDIVKRYNWTYVSAVHTEGNYGESGMDAFKELAAQEGLCIAHSDKIYSNAGEKSFDRLLRKLRERLPKARVVVCFCEGMTVRGLLSAMRRLGVVGEFSLIGSDGWADRDEVIEGYEVEANGGITIKLQSPEVRSFDDYFLKLRLDTNTRNPWFPEFWQHRFQCRLPGHLLENPNFKKVCTGNESLEENYVQDSKMGFVINAIYAMAHGLQNMHHALCPGYVGLCDAMKPIDGRKLLDFLIKSSFVGVSGEEVWFDEKGDAPGRYDIMNLQYTEANRYDYVHVGTWHEGVLNIDDYKIQMNKSGMVRSVCSEPCLKGQIKVIRKGEVSCCWICTACKENEFVQDEFTCRACDLGWWPNAELTGCEPITIRYLEWSDIESIIAIAFSCLGILVTLFVTLIFVLYRDTPVVKSSSRELCYIILAGIFLGYVCPFTLIAKPTTTSCYLQRLLVGLSSAMCYSALVTKTNRIARILAGSKKKICTRKPRFMSAWAQVIIASILISVQLTLVVTLIIMEPPMPILSYPSIKEVYLICNTSNLGVVAPVGYNGLLIMSCTYYAFKTRNVPANFNEAKYIAFTMYTTCIIWLAFVPIYFGSNYKIITTCFAVSLSVTVALGCMFTPKMYIIIAKPERNVRSAFTTSDVVRMHVGDGKLPCRSNTFLNIFRRKKPGAGNANSNGKSVSWSEPGGRQAPKGQHVWQRLSVHVKTNETACNQTAVIKPLTKSYQGSGKSLTFSDASTKTLYNVEEEDNTPSTHFSPPSSPSMVVHRRGPPVATTPPLPPHLSAEETPLFLADSVIPKGLPPPLPQQQQQPPPQPPPQQPKSLMDQLQGVVTNFGSGIPDFHAVLAGPGTPGNGLRSLYPPPPPPQHLQMLPLQLSTFREEPISPPGEDDDDDSSERFKLLQEFVYEREGNTEEDDLEEEEDLPAASKLTPEDSPALTPPSPFRDSVASGSSVPSSPVSESVLCTPPNVTYASVILRDYKQSSSTL
# B2: metabotropic glutamate receptor 1 (mGluR1), P97772 21-1199 (receptor)
# chain: RMPDRKVLLAGASSQRSVARMDGDVIIGALFSVHHQPPAEKVPERKCGEIREQYGIQRVEAMFHTLDKINADPVLLPNITLGSEIRDSCWHSSVALEQSIEFIRDSLISIRDEKDGLNRCLPDGQTLPPGRTKKPIAGVIGPGSSSVAIQVQNLLQLFDIPQIAYSATSIDLSDKTLYKYFLRVVPSDTLQARAMLDIVKRYNWTYVSAVHTEGNYGESGMDAFKELAAQEGLCIAHSDKIYSNAGEKSFDRLLRKLRERLPKARVVVCFCEGMTVRGLLSAMRRLGVVGEFSLIGSDGWADRDEVIEGYEVEANGGITIKLQSPEVRSFDDYFLKLRLDTNTRNPWFPEFWQHRFQCRLPGHLLENPNFKKVCTGNESLEENYVQDSKMGFVINAIYAMAHGLQNMHHALCPGYVGLCDAMKPIDGRKLLDFLIKSSFVGVSGEEVWFDEKGDAPGRYDIMNLQYTEANRYDYVHVGTWHEGVLNIDDYKIQMNKSGMVRSVCSEPCLKGQIKVIRKGEVSCCWICTACKENEFVQDEFTCRACDLGWWPNAELTGCEPITIRYLEWSDIESIIAIAFSCLGILVTLFVTLIFVLYRDTPVVKSSSRELCYIILAGIFLGYVCPFTLIAKPTTTSCYLQRLLVGLSSAMCYSALVTKTNRIARILAGSKKKICTRKPRFMSAWAQVIIASILISVQLTLVVTLIIMEPPMPILSYPSIKEVYLICNTSNLGVVAPVGYNGLLIMSCTYYAFKTRNVPANFNEAKYIAFTMYTTCIIWLAFVPIYFGSNYKIITTCFAVSLSVTVALGCMFTPKMYIIIAKPERNVRSAFTTSDVVRMHVGDGKLPCRSNTFLNIFRRKKPGAGNANSNGKSVSWSEPGGRQAPKGQHVWQRLSVHVKTNETACNQTAVIKPLTKSYQGSGKSLTFSDASTKTLYNVEEEDNTPSTHFSPPSSPSMVVHRRGPPVATTPPLPPHLSAEETPLFLADSVIPKGLPPPLPQQQQQPPPQPPPQQPKSLMDQLQGVVTNFGSGIPDFHAVLAGPGTPGNGLRSLYPPPPPPQHLQMLPLQLSTFREEPISPPGEDDDDDSSERFKLLQEFVYEREGNTEEDDLEEEEDLPAASKLTPEDSPALTPPSPFRDSVASGSSVPSSPVSESVLCTPPNVTYASVILRDYKQSSSTL
# Key:
# [1] = target: T1, Homer1 (mouse (endogenous in cultured cortical neurons and cortex)), Q9Z2Y3; test: co-IP; cultured mouse cortical neurons transfected for 72 h with lentiviruses for wild-type or mutant mGluR1 or Homer1, 24 h after TNI; anti-Homer1 precipitation (stated for the Homer1 vectors), western blot for mGluR1 and Homer1; settings: remark: other sources report otherwise
# T1 chain: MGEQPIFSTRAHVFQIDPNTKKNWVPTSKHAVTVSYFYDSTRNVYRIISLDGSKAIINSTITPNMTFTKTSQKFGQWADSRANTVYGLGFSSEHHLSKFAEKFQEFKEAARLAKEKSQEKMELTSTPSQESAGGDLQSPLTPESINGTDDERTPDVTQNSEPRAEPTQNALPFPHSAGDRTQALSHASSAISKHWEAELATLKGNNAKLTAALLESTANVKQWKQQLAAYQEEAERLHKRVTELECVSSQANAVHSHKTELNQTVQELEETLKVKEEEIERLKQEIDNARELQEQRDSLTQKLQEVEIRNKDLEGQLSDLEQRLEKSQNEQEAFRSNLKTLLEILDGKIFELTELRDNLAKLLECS
# [2] = target: T1, Homer1 (mouse (endogenous in cultured …)); test: co-IP; lysate of cortex of wild-type and Preso-/- mice, sham or after TBI (CCI); anti-Homer1 precipitation, western blot; settings: remark: other sources report otherwise
# [3] = target: T2, Homer1 expressed from lentivirus (LV-Homer1), Q9Z2Y3; test: co-IP; cultured mouse cortical neurons transfected for 72 h with lentiviruses for wild-type or mutant mGluR1 or Homer1, 24 h after TNI; anti-Homer1 precipitation (stated for the Homer1 vectors), western blot for mGluR1 and Homer1; settings: remark: other sources report otherwise
# T2 chain: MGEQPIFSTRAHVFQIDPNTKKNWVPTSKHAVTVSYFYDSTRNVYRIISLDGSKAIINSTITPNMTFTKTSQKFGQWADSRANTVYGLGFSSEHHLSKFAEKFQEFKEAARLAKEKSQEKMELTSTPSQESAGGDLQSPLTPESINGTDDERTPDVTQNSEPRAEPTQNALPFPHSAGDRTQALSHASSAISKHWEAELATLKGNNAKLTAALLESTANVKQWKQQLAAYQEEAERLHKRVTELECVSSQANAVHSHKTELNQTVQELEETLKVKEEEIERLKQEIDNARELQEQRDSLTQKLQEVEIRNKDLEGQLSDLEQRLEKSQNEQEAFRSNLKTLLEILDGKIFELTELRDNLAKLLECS
# [4] = target: T1, Homer1 (mouse (endogenous in cultured …)); test: co-IP; endogenous proteins in lysate of cultured mouse cortical neurons; anti-Homer1 on magnetic beads (Pierce Crosslink Magnetic IP/Co-IP Kit), overnight at 4 °C, western blot; cells with or without TNI, LV-shPreso, LV-Preso, purvalanol B (50 μM), KN93 (10 μM); settings: remark: other sources report otherwise
# [5] = target: T3, Homer1 (mouse (endogenous in cultured cortical neurons and cortex)) (UniProt Q9Z2Y3); test: co-IP; competition: synthetic TAT-fused peptide (5 μM) given to living cultured mouse cortical neurons before TNI; loss of the co-precipitate with anti-Preso or anti-Homer1 against the control peptide; only the binder purified
# T3 sequence: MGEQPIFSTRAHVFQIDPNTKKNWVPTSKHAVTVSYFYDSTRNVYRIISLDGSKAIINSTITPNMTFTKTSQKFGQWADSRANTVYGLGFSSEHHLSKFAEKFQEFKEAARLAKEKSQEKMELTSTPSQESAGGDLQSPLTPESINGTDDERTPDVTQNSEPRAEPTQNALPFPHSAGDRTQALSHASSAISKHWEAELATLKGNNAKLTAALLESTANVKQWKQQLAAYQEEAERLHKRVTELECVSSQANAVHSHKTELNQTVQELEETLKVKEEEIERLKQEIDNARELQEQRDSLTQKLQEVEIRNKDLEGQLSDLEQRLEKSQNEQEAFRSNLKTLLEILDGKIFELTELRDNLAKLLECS
# [6] = target: cyclin-dependent kinase 5 (CDK5) (mouse (endogenous in cultured cortical neurons)) (UniProt P49615); test: as above
binder,measurement,setting,value
B1,binding,[1],binds
B2,binding,[2],binds
same,binding,[3],binds
same,binding,[4],binds
GRKKRRQRRRPQDSPALTPPSPFRDSVA [TAT-mGluR1-H1],binding,[5],binds
GRKKRRQRRRPQEKRSEVTLLVGPRYG [TAT-Preso-D],binding,[6],binds
